Results are given in words; binding and its absence hold for the method and conditions named. Some binding calls cover weakened binding; strength is not graded here. Where a sequence is shown, tags or fusion partners need not be part of it.
Legend:
[1] = target: FleBt-FliB fusion protein (flagellin lysine methyltransferase FliB fused to the C-terminus of truncated FleB) (S. enterica serovar Typhimurium strain SL1344) (UniProt Q56106); test: atomic force microscopy; purified ftFliB settled on a flat MICA surface, imaged in buffer; both purified
[2] = target: FleBt-FliB fusion protein (flagellin lysine methyltransferase FliB fused to the C-terminus of truncated FleB) (S. enterica serovar Typhimurium strain SL1344) (UniProt Q56106); test: negative-stain transmission electron microscopy; purified ftFliB on a carbon-coated copper grid, 1% uranyl acetate, 120 kV; both purified
[3] = target: FleBt-FliB fusion protein (flagellin lysine methyltransferase FliB fused to the C-terminus of truncated FleB) (S. enterica serovar Typhimurium strain SL1344) (UniProt Q56106); test: SEC; TSK-GEL BioAssist G4SWXL column, buffer A (50 mM Tris-HCl, 150 mM NaCl, 10% glycerol, pH 8.5); ftFliB compared with the FleBt tag; both purified

Measured: binding

B1: FleBt-FliB fusion protein (flagellin lysine methyltransferase FliB fused to the C-terminus of truncated FleB) (enzyme)
chain: MKEITVTEPAFVTRFSCSGSACRDHCCKGWKITLDKTTVKKYLASKDTTIRTIAQDHIILLKKNNSHWGEIKLPSALGNCPYLDEDRLCRVQKTLGAKALSHTCSSFPRAHHTYKNEVRNSLSLACPEVTSRILNDPDAMALSEKTIIQQTFNTAPLFPAQQKLLNLFCLSLINHANSSTEAALYALIKFVMYAQKFAKIDDAALGELEQVYAALLEQLQTGVLAQELMNIAPDSKVKTSLVLQMQDYFRSLPLNRGSVILDHYIQCLLRVLTAEEGVSMEQKVSDIESSLARCLQANEQQKNWAFRNLILYKIWENNFPNQPNVDPLRALYIIVAEYAFIKLLTAASVHERGRIEWDDVTNIVYSFHSRSQHNSEVAKNFHRHIETVRTGDDLSMIHLLT
notes: also called ftFliB; source: E. coli BL21 (DE3), purified (HisTrap HP, SEC); copies: 14
binds: all assays above

— article PMC8598068, “Flagellin lysine methyltransferase FliB catalyzes a [4Fe-4S] mediated methyl transfer reaction” (PLoS Pathogens, 2021)
